Results deposited as PubChem BioAssay AID1224830 (NIAID, 2016)
Test: 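Host factors that control LPS-induced TNF expression in human macrophages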 (primary screen). Cell system: human THP-1 monocytic leukaemia cells, TNF dual-luciferase reporter clone, PMA-differentiated to macrophage-like cells. Reagent: siRNA pool against human genes, 50 nM. Time to read-out: LPS for 4 h, given about 3 days after siRNA transfection. Treatment: bacterial LPS (TLR4 ligand), 10 ng/ml. Measured: 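TNF firefly reporter luminescence divided by renilla, normalised to the plate median, then turned into a robust z-score for each replicate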. Reading the numbers: TNF reporter robust z-score: higher = stronger TNF reporter response to LPS. Active means: 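Each well counts as active if its z-score is over 2.8 or under -1.5; controls are left without a call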.
In all, the deposit lists about 18,000 reagents; shown is a part drawn at random. Over the whole deposit, about 2,900 (16%) are marked active. 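Calls are made per well; low scores hint the gene aids the LPS response, high scores that it dampens it.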 Repeated entries: four replicate wells of each siRNA pool. No sequences are given here.

target,TNF reporter robust z-score,Call
EHBP1 (EH domain binding protein 1),-0.19,inactive
EHBP1 (EH domain binding protein 1),0.17,inactive
EHBP1 (EH domain binding protein 1),0.25,inactive
EHBP1 (EH domain binding protein 1),0.31,inactive
OR52K1 (olfactory receptor family 52 subfamily K member 1),1.01,inactive
OR52K1 (olfactory receptor family 52 subfamily K member 1),1.64,inactive
OR52K1 (olfactory receptor family 52 subfamily K member 1),0.96,inactive
OR52K1 (olfactory receptor family 52 subfamily K member 1),1.4,inactive
RELN (reelin),1.12,inactive
RELN (reelin),0.35,inactive
RELN (reelin),-0.47,inactive
"ST6GALNAC4 (ST6 N-acetylgalactosaminide alpha-2,6-sialyltransferase 4)",1.48,inactive
"ST6GALNAC4 (ST6 N-acetylgalactosaminide alpha-2,6-sialyltransferase 4)",0.35,inactive
"ST6GALNAC4 (ST6 N-acetylgalactosaminide alpha-2,6-sialyltransferase 4)",1.07,inactive
"ST6GALNAC4 (ST6 N-acetylgalactosaminide alpha-2,6-sialyltransferase 4)",0.83,inactive
ZNF445 (zinc finger protein 445),-0.6,inactive
ZNF445 (zinc finger protein 445),0.67,inactive
ZNF445 (zinc finger protein 445),-0.8,inactive
ZNF445 (zinc finger protein 445),0.4,inactive
ZNF415 (zinc finger protein 415),-0.04,inactive
ZNF415 (zinc finger protein 415),1.04,inactive
ZNF415 (zinc finger protein 415),0.68,inactive
ZNF415 (zinc finger protein 415),0.98,inactive
BHLHE22 (basic helix-loop-helix family member e22),-0.85,inactive
BHLHE22 (basic helix-loop-helix family member e22),-0.59,inactive
BHLHE22 (basic helix-loop-helix family member e22),-0.71,inactive
BHLHE22 (basic helix-loop-helix family member e22),-0.68,inactive
ALDH5A1 (aldehyde dehydrogenase 5 family member A1),-0.23,inactive
ALDH5A1 (aldehyde dehydrogenase 5 family member A1),0.11,inactive
ALDH5A1 (aldehyde dehydrogenase 5 family member A1),0.58,inactive
ALDH5A1 (aldehyde dehydrogenase 5 family member A1),0.37,inactive
"EARS2 (glutamyl-tRNA synthetase 2, mitochondrial)",-0.63,inactive
"EARS2 (glutamyl-tRNA synthetase 2, mitochondrial)",0,inactive
"EARS2 (glutamyl-tRNA synthetase 2, mitochondrial)",-0.08,inactive
"EARS2 (glutamyl-tRNA synthetase 2, mitochondrial)",0.37,inactive
ZNF414 (zinc finger protein 414),0.63,inactive
ZNF414 (zinc finger protein 414),-0.29,inactive
ZNF414 (zinc finger protein 414),0.48,inactive
ZNF414 (zinc finger protein 414),1.02,inactive
NSG1 (neuronal vesicle trafficking associated 1),0.33,inactive
NSG1 (neuronal vesicle trafficking associated 1),0.35,inactive
NSG1 (neuronal vesicle trafficking associated 1),0.6,inactive
OR4D1 (olfactory receptor family 4 subfamily D member 1),-0.81,inactive
OR4D1 (olfactory receptor family 4 subfamily D member 1),-1.12,inactive
OR4D1 (olfactory receptor family 4 subfamily D member 1),-0.75,inactive
OR4D1 (olfactory receptor family 4 subfamily D member 1),-1,inactive
TLCD3B (TLC domain containing 3B),0.21,inactive
TLCD3B (TLC domain containing 3B),-0.42,inactive
TLCD3B (TLC domain containing 3B),-0.47,inactive
TLCD3B (TLC domain containing 3B),0.13,inactive
MSANTD1 (Myb/SANT DNA binding domain containing 1),0.61,inactive
MSANTD1 (Myb/SANT DNA binding domain containing 1),0.49,inactive
MSANTD1 (Myb/SANT DNA binding domain containing 1),0.06,inactive
MSANTD1 (Myb/SANT DNA binding domain containing 1),-0.94,inactive
DPH6 (diphthamine biosynthesis 6),-1.16,inactive
DPH6 (diphthamine biosynthesis 6),-1.4,inactive
DPH6 (diphthamine biosynthesis 6),-1.13,inactive
REPS2 (RALBP1 associated Eps domain containing 2),-0.33,inactive
REPS2 (RALBP1 associated Eps domain containing 2),0.26,inactive
REPS2 (RALBP1 associated Eps domain containing 2),0.56,inactive
REPS2 (RALBP1 associated Eps domain containing 2),0.16,inactive
SSBP2 (single stranded DNA binding protein 2),-0.04,inactive
SSBP2 (single stranded DNA binding protein 2),-0.36,inactive
SSBP2 (single stranded DNA binding protein 2),-0.16,inactive
SSBP2 (single stranded DNA binding protein 2),-0.74,inactive
ZMYND8 (zinc finger MYND-type containing 8),-0.62,inactive
ZMYND8 (zinc finger MYND-type containing 8),-0.92,inactive
ZMYND8 (zinc finger MYND-type containing 8),-0.77,inactive
ZMYND8 (zinc finger MYND-type containing 8),-0.38,inactive
GPR101 (G protein-coupled receptor 101),-1.01,inactive
GPR101 (G protein-coupled receptor 101),-0.55,inactive
GPR101 (G protein-coupled receptor 101),-0.7,inactive
GPR101 (G protein-coupled receptor 101),0,inactive
ZG16B (zymogen granule protein 16B),0.21,inactive
ZG16B (zymogen granule protein 16B),-0.02,inactive
ZG16B (zymogen granule protein 16B),-0.48,inactive
ZG16B (zymogen granule protein 16B),0.67,inactive
